# Percent effect of library compounds

Amino acid sequences for entries named in this document (tags omitted). Residues count along the entry.
UniProt Q8IDJ8, 1-583: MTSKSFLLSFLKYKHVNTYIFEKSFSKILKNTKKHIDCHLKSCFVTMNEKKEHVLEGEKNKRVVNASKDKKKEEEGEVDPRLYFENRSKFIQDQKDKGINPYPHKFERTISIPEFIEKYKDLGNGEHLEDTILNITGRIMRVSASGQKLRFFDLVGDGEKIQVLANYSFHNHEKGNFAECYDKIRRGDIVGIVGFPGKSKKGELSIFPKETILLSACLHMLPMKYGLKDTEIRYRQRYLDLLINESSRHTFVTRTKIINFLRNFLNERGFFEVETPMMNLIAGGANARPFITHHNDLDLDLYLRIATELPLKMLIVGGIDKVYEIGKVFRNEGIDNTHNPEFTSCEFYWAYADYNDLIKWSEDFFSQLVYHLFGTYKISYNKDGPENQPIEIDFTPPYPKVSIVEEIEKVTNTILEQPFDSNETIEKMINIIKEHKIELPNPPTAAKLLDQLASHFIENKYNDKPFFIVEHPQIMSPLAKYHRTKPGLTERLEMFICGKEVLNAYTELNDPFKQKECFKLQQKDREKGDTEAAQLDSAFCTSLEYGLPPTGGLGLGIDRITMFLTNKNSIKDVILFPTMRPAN
UniProt P9WFT3, whole entry: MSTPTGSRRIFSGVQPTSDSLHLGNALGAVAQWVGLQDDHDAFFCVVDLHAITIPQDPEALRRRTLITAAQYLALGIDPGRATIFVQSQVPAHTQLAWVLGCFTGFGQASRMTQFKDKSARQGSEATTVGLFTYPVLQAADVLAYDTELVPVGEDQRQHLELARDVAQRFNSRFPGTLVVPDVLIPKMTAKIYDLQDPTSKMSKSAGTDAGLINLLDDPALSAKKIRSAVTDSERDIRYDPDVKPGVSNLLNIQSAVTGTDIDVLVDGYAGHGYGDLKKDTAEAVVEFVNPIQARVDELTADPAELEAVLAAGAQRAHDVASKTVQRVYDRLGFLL
UniProt P9WPC5, whole entry: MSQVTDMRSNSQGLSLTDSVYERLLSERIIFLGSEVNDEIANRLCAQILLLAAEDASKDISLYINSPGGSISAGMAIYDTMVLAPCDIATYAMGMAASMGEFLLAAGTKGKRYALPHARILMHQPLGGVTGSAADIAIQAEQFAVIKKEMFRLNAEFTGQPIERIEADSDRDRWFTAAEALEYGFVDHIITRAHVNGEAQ
UniProt P9WPC3, whole entry partner: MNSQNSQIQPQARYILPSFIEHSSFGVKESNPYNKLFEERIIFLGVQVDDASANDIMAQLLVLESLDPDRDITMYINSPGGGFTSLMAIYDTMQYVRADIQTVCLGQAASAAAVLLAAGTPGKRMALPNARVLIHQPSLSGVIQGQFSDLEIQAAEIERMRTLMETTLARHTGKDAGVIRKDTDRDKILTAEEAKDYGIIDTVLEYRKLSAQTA
UniProt Q4DA54, 1-478: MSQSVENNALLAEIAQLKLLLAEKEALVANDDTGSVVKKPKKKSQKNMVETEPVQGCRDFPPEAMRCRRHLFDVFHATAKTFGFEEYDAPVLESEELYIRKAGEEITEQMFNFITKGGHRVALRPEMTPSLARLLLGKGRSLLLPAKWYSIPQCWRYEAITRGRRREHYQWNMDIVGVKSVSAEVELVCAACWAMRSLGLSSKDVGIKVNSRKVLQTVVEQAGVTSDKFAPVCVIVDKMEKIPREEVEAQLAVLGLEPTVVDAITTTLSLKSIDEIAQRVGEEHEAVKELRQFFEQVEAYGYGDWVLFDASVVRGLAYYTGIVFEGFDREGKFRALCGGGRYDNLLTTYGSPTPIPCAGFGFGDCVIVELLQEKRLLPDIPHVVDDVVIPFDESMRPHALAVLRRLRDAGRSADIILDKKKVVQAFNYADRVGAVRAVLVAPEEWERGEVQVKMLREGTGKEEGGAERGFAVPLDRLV

Data taken from ChEMBL document CHEMBL3988442, “University of Dundee, Small-Polar-MMV Screening Library” (2021).

Results are given as percent effect.
The record does not define 0% and 100%; most values in the screen are far below 50% and negative numbers occur (in some assays of this library far below -100).
Compounds were drawn at random from those tested, without regard to their results.
A dash means the value is not listed here; it may have been measured.

PfKRS1: 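Enzyme assay of the cytosolic lysyl-tRNA synthetase in 384-well plates, read by luminescence. Target: Lysine-tRNA ligase, Plasmodium falciparum 3D7 (UniProt Q8IDJ8). Tested at 30 µM. Direction is inferred from only a few compounds that gave an IC50; most scored high, so higher reads as stronger inhibition. Size under these conditions: about 69,000 compounds, about 49 of them at 50% or above in at least one test.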
MtTrpRS: 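Tryptophan-tRNA ligase, Mycobacterium tuberculosis (UniProt P9WFT3). Enzyme assay of tryptophanyl-tRNA synthetase; the read-out is not stated. Concentration: 10 µM. Higher most likely means stronger inhibition; the record gives no direction and few retests gave an IC50. Of about 65,000 compounds tested this way, about 64 (0.098%) reached 50% or more in at least one test.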
ClpP1P2: 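ClpP1P2, Mycobacterium tuberculosis (UniProt P9WPC5 and UniProt P9WPC3). Protease assay of ClpP1P2, read by the AMC dye that it sets free. Tested at 50 µM. Direction is inferred from only a few compounds that gave an IC50; most scored high, so higher reads as stronger inhibition. Most other retested compounds had strongly negative values. Of about 69,000 compounds tested this way, about 10 (0.015%) reached 50% or more in at least one test.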
TcHisRS: 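Enzyme assay of histidyl-tRNA synthetase; the read-out is not stated. Target: Histidine-tRNA ligase, Trypanosoma cruzi CL Brener (UniProt Q4DA54). Concentration: 30 µM. The record gives no direction; compounds that gave an IC50 in retests scored well above the rest, so higher reads as stronger inhibition. Size under these conditions: about 69,000 compounds, about 31 of them at 50% or above in at least one test.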

SMILES	PfKRS1	MtTrpRS	ClpP1P2	TcHisRS
Cn1nc(CNC(=O)c2nc3ccccc3s2)c2c1CCOC2	-1.973	-3.859	-9.659	5.435
Cc1cc(NC(=O)CCn2nc(C)c3ccccc32)n(C(C)C)n1	7.355	-2.801	-25.49	2.232
CCCc1n[nH]c(C2CN(C(=O)Cc3ccc(C)nc3)CCO2)n1 (stereo not drawn)	3.644	-2.028	-7.898	3.941
Cn1ncc2c(=O)[nH]c(CN3CCc4ccccc4C3)nc21	0.1977	-9.504	-0.8825	2.339
O=C1CCCN1CCCN1CCCC1Cn1cccn1 (stereo not drawn)	1.108	1.323	-7.274	3.941
CCCc1nc(N2CCCCCC2)c2c(n1)c(C)nn2CC	-1.486	0.08157	2.762	8.247
CCCN1C(=O)CC2(CCCNC2)C1=O (stereo not drawn)	6.379	2.366	4.154	-6.767
Fc1cnc(N2CCO[C@H]3[C@H](OCCN4CCCC4)CC[C@@H]32)nc1	2.695	-	-0.9161	-2.21
Cc1cc(C)n(C2CN(CC(=O)NCc3ccccn3)C2)n1	-0.1198	-1.782	-2.155	4.327
NC(=O)[C@@H]1CCCN1C(=O)c1cn(C/C=C/c2ccccc2)nn1	8.626	6.993	-12.82	3.614
COCC(NC1CCSCC1)c1ccnn1C (stereo not drawn)	-1.031	8.886	-0.2921	-1.026
Cc1cnc(N2CCC3(CCCN(c4ncc(F)cn4)C3)C2)nc1 (stereo not drawn)	4.738	4.181	4.962	12.06
COc1ccc(CNC(=O)C2=NN(c3ccc(C)cc3)C(=O)CN2)cc1	5.439	0.2639	8.163	-1.163
CCNc1cc2c(nn1)CCN(C(=O)c1cc3ccccc3o1)C2	-0.2213	-5.661	-45.58	7.91
Cn1c(-c2ccc(F)cc2)cn2cc(C(=O)N3CC[C@@H](O)C3)nc2c1=O	1.745	0.4841	11.83	10.84
Cn1cc(CN2CCCC3(CCN(Cc4ccncc4)C3=O)C2)cn1 (stereo not drawn)	3.279	-1.862	-13.84	8.571
O=C([C@H]1CC[C@@H]2[C@@H](CCN2Cc2ccsc2)O1)N1CCOCC1	11.07	-4.068	5.62	5.882
CCN(C)C(=O)c1ncn2c(C3CCN(S(C)(=O)=O)CC3)ccnc12	2.957	2.616	-5.861	9.816
CCOC(=O)NC(C(=O)NCc1ccc(N2CCCCC2)nc1)C(C)C (stereo not drawn)	7.682	-1.174	1.575	-0.7519
O=C(CN(CC1CCC1)CC(F)(F)F)N1CCOCC1	1.497	-2.808	-8.697	-0.431
N#Cc1ccc(N2CCN(C(=O)c3cc(C4CC4)[nH]n3)CC2)c(F)c1	3.388	1.458	2.69	-1.916
COc1ccc(CN2CCC(c3nnc(-c4scnc4C)o3)CC2)cc1	0.2784	-	4.215	7.692
Cc1csc(NC(=O)CN(C)CC2CCCN2c2cccnn2)n1 (stereo not drawn)	12.49	0.1876	-5.626	11.23
Cc1nc(NCC2CC2)nc2c1COCC21CCN(C)C1 (stereo not drawn)	4.254	4.053	10.22	3.825
Cc1nc2n(n1)CC(NCCC(=O)Nc1cc(C)on1)CC2 (stereo not drawn)	-0.6986	-5.962	-6.912	1.754
c1cnnc(N2CCCC(NCc3cn4ccccc4n3)C2)c1 (stereo not drawn)	-5.687	7.41	8.766	8.745
COc1cccc(CC2CCCN2Cc2nccn2C)c1 (stereo not drawn)	5.235	-0.8043	-5.041	3.704
CNC(=O)[C@H]1C[C@@H]2CN(c3cc(OC)ncn3)C[C@@H]2N1C(C)C	-3.093	2.467	-3.486	2.151
Cc1ccc(C)c(S(=O)(=O)NC(=O)c2cccc3c2OCCO3)c1	3.065	0.8997	-13.54	5.521
O=c1c2cnc(N3CCCC3)nc2ccn1-c1cccc(C(F)(F)F)c1	1.54	-1.952	5.067	12.5
Cc1ccc(NC2CCN(C(=O)CCOCC(F)(F)F)CC2)nn1	-0.9643	2.603	1.395	4.298
Cc1cncc(C(=O)N2CCCC(O)(CO)C2)c1 (stereo not drawn)	0.2988	-5.057	-0.3775	4.972
O=C(NCCCF)Nc1ccc2nc(N3CCOCC3)oc2c1	-6.769	6.795	-14.57	-3.247
Cc1cnccc1CN1C[C@@H](O)[C@H](Oc2ccccc2)C1	1.217	-3.094	-4.058	4.865
Cc1nccnc1N1C[C@H]2CN(C3CCOCC3)C[C@@]2(C(=O)O)C1	2.897	-4.04	-3.229	5.844
CC(C)(C)OC(=O)NC1CCCN(Cc2cccc(O)c2)C1 (stereo not drawn)	6.961	-4.562	-9.646	3.448
Cc1nccc([C@@H]2C[C@@H]3CCN(S(=O)(=O)C4CC4)C[C@H]3O2)n1	3.033	-6.624	-16.5	3.738
COc1ccc(N2CCN(C(=O)CCc3n[nH]c(C)n3)CC2=O)cc1	-0.7166	3.539	14.91	2.146
CC(C)N1CCc2nnc(COc3cncnc3)n2CC1	0.1516	1.569	-3	5.785
CC(C)CC(=O)N1CCCCC(NC(=O)CCc2cccnc2)C1 (stereo not drawn)	5.697	-0.7322	-10.06	1.288
NC(=O)[C@H]1CCCN(c2nccc(-c3ccncc3)n2)C1	3.024	-	-5.345	-3.39
CC1CCC(NC(=O)Nc2ccc(CC(=O)N(C)C)cc2)CC1 (stereo not drawn)	-3.852	-3.627	-15.72	3.333
CCc1cnc(CN(C(C)=O)C2CCN(CCc3cccs3)C2)o1 (stereo not drawn)	-0.5745	-5.556	12.81	0.7576
CCN(CCCNCc1c(C)nn(C)c1N(C)C)S(C)(=O)=O	2.376	-2.273	4.723	6.745
Cc1ccccc1CN1CCC(NCC2CNc3ccnn3C2)CC1 (stereo not drawn)	5.257	-3.521	-18.11	3.39
CCCOc1ccc(CNCCn2cccn2)cc1	1.345	-4.61	-8.74	2.484
COc1ccc(-c2ccc(C(=O)NS(C)(=O)=O)c(F)c2)c(F)c1	3.663	3.21	-3.959	9.524
O=S(=O)(c1ccccc1F)N1CCCCC1c1cc[nH]n1 (stereo not drawn)	1.185	-	-2.61	-1.099
CC(C)CN1CCC2(CCN(C(=O)c3ccc(F)cc3)CC2)C1=O	-0.4907	-0.5344	10.9	4.511
CCc1noc(C(C)N2CCN(c3ccc(C#N)cc3F)CC2)n1 (stereo not drawn)	8.694	-3.708	-6.329	0

The last 6 entries again:

{"smiles": "Cc1ccccc1CN1CCC(NCC2CNc3ccnn3C2)CC1", "stereo": "stereo not drawn", "PfKRS1": 5.257, "MtTrpRS": -3.521, "ClpP1P2": -18.11, "TcHisRS": 3.39}
{"smiles": "CCCOc1ccc(CNCCn2cccn2)cc1", "PfKRS1": 1.345, "MtTrpRS": -4.61, "ClpP1P2": -8.74, "TcHisRS": 2.484}
{"smiles": "COc1ccc(-c2ccc(C(=O)NS(C)(=O)=O)c(F)c2)c(F)c1", "PfKRS1": 3.663, "MtTrpRS": 3.21, "ClpP1P2": -3.959, "TcHisRS": 9.524}
{"smiles": "O=S(=O)(c1ccccc1F)N1CCCCC1c1cc[nH]n1", "stereo": "stereo not drawn", "PfKRS1": 1.185, "ClpP1P2": -2.61, "TcHisRS": -1.099}
{"smiles": "CC(C)CN1CCC2(CCN(C(=O)c3ccc(F)cc3)CC2)C1=O", "PfKRS1": -0.4907, "MtTrpRS": -0.5344, "ClpP1P2": 10.9, "TcHisRS": 4.511}
{"smiles": "CCc1noc(C(C)N2CCN(c3ccc(C#N)cc3F)CC2)n1", "stereo": "stereo not drawn", "PfKRS1": 8.694, "MtTrpRS": -3.708, "ClpP1P2": -6.329, "TcHisRS": 0}